Measured values: PMC2791216, “Phosphorylation of S776 and 14-3-3 Binding Modulate Ataxin-1 Interaction with Splicing Factors” (PLoS ONE, 2009)
Results are given in words; binding and its absence hold for the method and conditions named. For some of these results: In cells and extracts the contact can be indirect. Some binding calls cover weakened binding; strength is not graded here. Blank lines part the entries; values can stand above or below the molecule they belong to.

Amino acid sequences for entries named in this document (tags omitted).
UniProt P26369: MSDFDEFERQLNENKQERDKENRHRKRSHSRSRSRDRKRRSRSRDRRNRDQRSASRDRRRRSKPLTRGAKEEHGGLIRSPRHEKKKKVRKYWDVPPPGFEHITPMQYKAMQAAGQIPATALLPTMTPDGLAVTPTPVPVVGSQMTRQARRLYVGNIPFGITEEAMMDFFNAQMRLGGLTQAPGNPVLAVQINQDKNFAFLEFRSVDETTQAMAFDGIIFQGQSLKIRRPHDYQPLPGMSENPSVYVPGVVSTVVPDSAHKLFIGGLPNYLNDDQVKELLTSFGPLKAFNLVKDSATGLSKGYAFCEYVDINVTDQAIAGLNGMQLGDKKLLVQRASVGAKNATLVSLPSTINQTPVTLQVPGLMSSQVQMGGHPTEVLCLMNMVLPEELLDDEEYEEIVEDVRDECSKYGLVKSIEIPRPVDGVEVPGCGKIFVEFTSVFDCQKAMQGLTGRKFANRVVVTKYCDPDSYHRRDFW

Assays:
[1] = target: T1, endogenous Atx1 (mouse cerebellum) (mouse (endogenous in cerebellum)) (UniProt P54254); assay: co-IP; mouse cerebellum extracts; immunoprecipitated with anti-Atx1 (11NQ) or anti-U2AF65 antibodies, control anti-flag; blotted with anti-U2AF65 or anti-Atx1; TS buffer, 1.0% NP40, RNAse inhibitors
T1 sequence: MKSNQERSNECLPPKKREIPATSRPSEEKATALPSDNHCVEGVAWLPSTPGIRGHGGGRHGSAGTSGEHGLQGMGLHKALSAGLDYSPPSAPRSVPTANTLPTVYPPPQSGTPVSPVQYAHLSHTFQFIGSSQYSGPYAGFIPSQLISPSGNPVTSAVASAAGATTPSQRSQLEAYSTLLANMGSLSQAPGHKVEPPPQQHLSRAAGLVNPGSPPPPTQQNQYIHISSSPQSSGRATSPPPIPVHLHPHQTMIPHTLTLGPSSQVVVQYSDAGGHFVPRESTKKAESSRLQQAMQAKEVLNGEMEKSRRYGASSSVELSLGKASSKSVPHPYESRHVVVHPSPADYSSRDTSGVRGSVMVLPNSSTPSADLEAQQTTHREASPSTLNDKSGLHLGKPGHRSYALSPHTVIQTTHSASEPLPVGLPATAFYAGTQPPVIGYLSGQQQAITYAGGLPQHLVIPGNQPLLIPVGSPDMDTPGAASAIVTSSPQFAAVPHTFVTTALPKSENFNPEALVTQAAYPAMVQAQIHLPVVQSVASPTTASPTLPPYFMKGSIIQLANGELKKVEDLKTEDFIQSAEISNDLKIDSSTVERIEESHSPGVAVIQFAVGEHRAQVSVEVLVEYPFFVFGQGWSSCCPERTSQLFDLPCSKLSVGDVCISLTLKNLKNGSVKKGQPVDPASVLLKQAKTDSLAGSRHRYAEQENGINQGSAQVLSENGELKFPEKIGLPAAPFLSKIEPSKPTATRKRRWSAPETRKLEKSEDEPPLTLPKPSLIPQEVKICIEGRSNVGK

[2] = target: endogenous U2AF65 (mouse cerebellum) (mouse (endogenous in cerebellum)) (UniProt P26369); assay: as above
14-3-3ζ [3] = target: T2, 14-3-3ζ (UniProt P63104 1-245); assay: condition: 14-3-3ζ 0.012–0.037 mM, peptide 0.1–0.4 mM; ITC; 50 mM sodium phosphate buffer (pH 7.0), 150 mM NaCl, 5 mM DTT; 295 K; protein in the cell, peptide in the syringe; single-site model; averages of three measurements; both purified
T2 construct: 14-3-3 protein, isoform zeta; also called 14-3-3 isoform ζ
T2 sequence (looked up): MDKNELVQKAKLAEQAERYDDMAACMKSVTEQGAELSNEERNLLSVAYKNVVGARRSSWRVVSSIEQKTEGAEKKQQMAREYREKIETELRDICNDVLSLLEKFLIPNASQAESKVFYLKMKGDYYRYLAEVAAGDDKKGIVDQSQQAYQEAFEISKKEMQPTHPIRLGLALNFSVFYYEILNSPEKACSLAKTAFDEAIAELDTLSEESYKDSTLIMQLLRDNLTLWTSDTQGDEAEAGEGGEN

14-3-3ζ [4] = target: T2, 14-3-3ζ; assay: ITC; 50 mM sodium phosphate buffer (pH 7.0), 150 mM NaCl, 5 mM DTT; 295 K; protein in the cell, peptide in the syringe; single-site model; averages of three measurements; both purified

B1: endogenous Atx1 (mouse cerebellum) (protein, UniProt P54254 1-791)
chain: T1 sequence
- binding [2]: binds

B2: Atx1_A_ULM_PE (peptide)
peptide: ATRKRRWAAPE
notes: also called S776A-mutated peptide; S776A mutant peptide; source: synthetic peptide; bought: Pepceuticals Limited
- binding (14-3-3ζ [3]): no binding

Second part, the molecule after the results:

- binding [1]: binds
Molecule: endogenous U2AF65 (mouse cerebellum) (from UniProt P26369 1-475)

- binding (14-3-3ζ [4]): no binding (tested: 0.22 mM 14-3-3ζ)
B3: Atx1_D_ULM_PE (peptide)
peptide: ATRKRRWDAPE
notes: also called S776D peptide; S776D mutant peptide; source: synthetic peptide; bought: Pepceuticals Limited
